Data reported in patent US6727227B1 (Obschestvo S Ogranichennoi Otvetstven-Nostiju “Klinika …, priority 2002, dated 2004).

Assay: general procedure: solution-phase peptide synthesis; N,N'-dicyclohexylcarbodiimide / N-oxybenzotriazol; N-oxysuccinimide ester
Conditions: acetate, transferred to free form

## Cbz-AE(OBn)D(OBn)G-OBn
Coupling step
  step yield: 82%

## L-alanyl-L-glutamyl-L-aspartyl-glycine
Late stage modification step, 220 nm
  final HPLC purity: 98.45%

*: point of attachment. Cbz = O=C(OCc1ccccc1)*; OBn = c1ccc(CO*)cc1
